PMC4787770

By UniProt entry, the sequences of proteins in these tests, tags left out. Where a name states a change or a piece, a line headed by the entry shows the natural chain unless it says otherwise.
UniProt O17695: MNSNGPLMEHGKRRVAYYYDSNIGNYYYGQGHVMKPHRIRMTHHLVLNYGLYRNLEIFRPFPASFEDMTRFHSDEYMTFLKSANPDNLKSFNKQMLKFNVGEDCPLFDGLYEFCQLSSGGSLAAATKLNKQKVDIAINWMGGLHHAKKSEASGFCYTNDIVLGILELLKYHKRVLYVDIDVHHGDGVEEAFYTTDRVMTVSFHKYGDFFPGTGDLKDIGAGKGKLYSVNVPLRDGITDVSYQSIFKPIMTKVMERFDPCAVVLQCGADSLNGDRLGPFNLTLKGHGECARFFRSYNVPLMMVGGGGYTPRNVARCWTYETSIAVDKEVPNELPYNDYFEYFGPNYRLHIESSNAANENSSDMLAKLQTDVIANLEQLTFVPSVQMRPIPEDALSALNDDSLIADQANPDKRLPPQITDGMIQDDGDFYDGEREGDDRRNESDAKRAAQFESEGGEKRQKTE
UniProt Q22343: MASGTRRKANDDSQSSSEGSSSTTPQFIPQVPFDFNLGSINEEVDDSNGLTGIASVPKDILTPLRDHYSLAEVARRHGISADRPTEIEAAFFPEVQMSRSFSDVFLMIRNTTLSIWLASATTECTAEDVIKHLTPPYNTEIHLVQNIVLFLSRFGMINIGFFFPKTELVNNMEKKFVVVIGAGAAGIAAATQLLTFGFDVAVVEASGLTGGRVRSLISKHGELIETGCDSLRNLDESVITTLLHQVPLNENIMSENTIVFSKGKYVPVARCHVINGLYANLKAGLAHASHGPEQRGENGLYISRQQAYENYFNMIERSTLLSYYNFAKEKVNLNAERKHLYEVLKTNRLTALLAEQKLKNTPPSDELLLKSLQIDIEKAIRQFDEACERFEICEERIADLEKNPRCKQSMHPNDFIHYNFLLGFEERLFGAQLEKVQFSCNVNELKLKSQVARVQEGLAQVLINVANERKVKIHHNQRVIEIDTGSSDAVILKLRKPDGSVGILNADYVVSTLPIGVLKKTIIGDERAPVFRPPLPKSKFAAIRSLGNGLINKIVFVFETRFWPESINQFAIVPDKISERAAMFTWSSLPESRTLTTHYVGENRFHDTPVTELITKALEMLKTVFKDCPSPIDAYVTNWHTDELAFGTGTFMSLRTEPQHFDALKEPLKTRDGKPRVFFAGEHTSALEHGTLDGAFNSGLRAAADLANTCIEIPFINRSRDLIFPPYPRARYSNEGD

T1: HPL-1::GFP (C. elegans) (UniProt G5EET5)
T1 sequence: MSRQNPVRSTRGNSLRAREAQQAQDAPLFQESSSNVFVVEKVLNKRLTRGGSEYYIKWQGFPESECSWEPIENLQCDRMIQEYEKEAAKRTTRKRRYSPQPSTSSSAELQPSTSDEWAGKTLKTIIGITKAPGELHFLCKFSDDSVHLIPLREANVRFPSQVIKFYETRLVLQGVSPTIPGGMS

B1: SPR-5 (protein, UniProt Q9XWP6 1-770)
chain: MSSDTGSEYLDEEIRGDELGPSIDDNALAAAASAARLPFDRPTDHELAFFPELWEHKTAVEVFLLLRNSTLATWQYNPLKECTALDVRNNVFPPFNSDLDLIQNIVHYLSRHGLINFGRYVRSTKISRFLVRDRRSVIVIGAGAAGISAATQLESFGFDVIVLEARNCIGGRIHSFKSKSGEIMETGGDTLRKIEDSPMATLLHQVNFEEHGVFDFTSVFVEGRPLNEEKIHLFLDHYKSAHGALNYQAHQCEHRDDQGSFISRQQAYENLLSMCERGTLIKYYNFCKSLETVARAREHHFNQMKQLRMTALMAENQLKKMEEEGNLEQDPVLRRSLKRDIATSLEKFEEVADAFETADNHWQRLNEHPQAKQYMHPGSEFATFNFMLGFEEYLVGAQLEKVQFSCDSMQNKENGVAARLTEGIAELLTQLSEKRKLDIRLKHRVLDIDYSGFEHVLLKVQRENGDIEEMKAAFVVSTLPIGVLKKTIIADERAPTFTPSLPDKKVEAIRNIGCGSVNKCILEFDRVFWTANGGRNQFVTVSPNIKTRGSMNIWSSVPGSKVLCTYIVGEEAMLELPDDVIIQNAMINLQKAFGNNCPRAPISAHITRWHDDELAFGSGAFMSLRTETTSFDDVMEPLKTSDGMSRVYFAGEHTCSSYTSTIQGAWMSGARAAADISNDHIGIGFVDISGTRGQRGDEEEELLIEVDIDGKIPEKDENEAVADIPNAPNAPNAQKPEEIPKIAEEIELVAEAEKAEKAEVQLEPLVPTVE
B2: HPL-2, endogenous (protein, UniProt G5EDE2 1-175)
chain: MSSKSTKRAKIEDPKDNVFMVEKVLDKRTGKAGRDEFLIQWQGFPESDSSWEPRENLQCVEMLDEFEREFSKREKPIRKRHSQKPEPSEDQADPEEDKDEKKETNQNDKFSLEGKQLKCIVGLTKGPGELHFLCKFSDDTARLLPAKEVNSRYPSQVIRYYESKLTIQDPKADEL
B3: RCOR-1 (protein, UniProt Q95Y41 1-564)
chain: MDSYTSSDEDASRKENISDEGLNMLNASPEPMEEDDPEEQAEQEEETSRMARPIRSMRKRETTSGESMGDEDEDLEDEEDEDEEAEAREHHESGAHDTSFSNPLSNVDNLIHVGTEYQAIIQPTAEQLEKEPCRDQQIWAFPDEMNENRLTEYISEATGRYQLPIDRALFILNKQSNDFDAAMVQAMRRKEIHDDWTAEEISLFSTCFFHFGKRFKKIHAAMPQRSLSSIIQYYYNTKKVQNYKTMINVHLNETDTYDELFKEVNHLERVPSGYCENCNAKSDLLILNRVMSRHECKPCILYFRLMRVPRPASLRALTKRRQRVLCPEYMKIYVYGYLELMEPANGKAIKRLGIGKEKEEDDDIMVVDDCLLRKPSGPYIVEQSIEADPIDENTCRMTRCFDTPAALALIDNIKRKHHMCVPLVWRVKQTKCMEENEILNEEARQQMFRATMTYSRVPKGEIANWKKDMMALKGRFERFTPELDTTATNGNRSGKVRINYGWSPEEKKNAIRCFHWYKDNFELIAELMATKTVEQIKKFYMDNEKLILESIDTYRAELKSKLGK

Target: T1, HPL-1::GFP (C. elegans)
Assay: affinity purification with mass spectrometry; about 200 mg total protein from mixed eggs and L1 of the hpl-1::GFP line, Magnetic GFP-Trap beads, elution with acidic glycine, gel slices, LC-MS/MS; hits of the controls (empty beads; wild-type extract on GFP beads) subtracted

Q: Which binding does the source give for HMG-11 here?
A: binds

Q: For HDA-1 (from UniProt O17695 1-461), which binding is on record?
A: binds

Q: Which binding does the source give for LSD-1 (from UniProt Q22343) here?
A: binds

Q: ZK185.1 was tested. Which binding did it give?
A: binds

Q: With B1 as the molecule, how does the binding read?
A: binds

Q: For B2, which binding is on record?
A: binds

Q: With B3 as the molecule, how does the binding read?
A: binds

Results are given in words; binding and its absence hold for the method and conditions named. Binding seen in cells or lysates may run through a third protein. These calls come from enrichment with a bait or labelling near it, and not all partners need be listed. Tags and fused reporters may be left off the sequences shown.
